Measured values taken from publication PMC4288368.
These are yes or no findings as the source states them, for the method shown. In cells and extracts the contact can be indirect. Some results given as binding are weak or reduced against the parent protein; the word gives no strength.

The chains behind the UniProt entries cited, without tags or fusion partners.
UniProt Q00610: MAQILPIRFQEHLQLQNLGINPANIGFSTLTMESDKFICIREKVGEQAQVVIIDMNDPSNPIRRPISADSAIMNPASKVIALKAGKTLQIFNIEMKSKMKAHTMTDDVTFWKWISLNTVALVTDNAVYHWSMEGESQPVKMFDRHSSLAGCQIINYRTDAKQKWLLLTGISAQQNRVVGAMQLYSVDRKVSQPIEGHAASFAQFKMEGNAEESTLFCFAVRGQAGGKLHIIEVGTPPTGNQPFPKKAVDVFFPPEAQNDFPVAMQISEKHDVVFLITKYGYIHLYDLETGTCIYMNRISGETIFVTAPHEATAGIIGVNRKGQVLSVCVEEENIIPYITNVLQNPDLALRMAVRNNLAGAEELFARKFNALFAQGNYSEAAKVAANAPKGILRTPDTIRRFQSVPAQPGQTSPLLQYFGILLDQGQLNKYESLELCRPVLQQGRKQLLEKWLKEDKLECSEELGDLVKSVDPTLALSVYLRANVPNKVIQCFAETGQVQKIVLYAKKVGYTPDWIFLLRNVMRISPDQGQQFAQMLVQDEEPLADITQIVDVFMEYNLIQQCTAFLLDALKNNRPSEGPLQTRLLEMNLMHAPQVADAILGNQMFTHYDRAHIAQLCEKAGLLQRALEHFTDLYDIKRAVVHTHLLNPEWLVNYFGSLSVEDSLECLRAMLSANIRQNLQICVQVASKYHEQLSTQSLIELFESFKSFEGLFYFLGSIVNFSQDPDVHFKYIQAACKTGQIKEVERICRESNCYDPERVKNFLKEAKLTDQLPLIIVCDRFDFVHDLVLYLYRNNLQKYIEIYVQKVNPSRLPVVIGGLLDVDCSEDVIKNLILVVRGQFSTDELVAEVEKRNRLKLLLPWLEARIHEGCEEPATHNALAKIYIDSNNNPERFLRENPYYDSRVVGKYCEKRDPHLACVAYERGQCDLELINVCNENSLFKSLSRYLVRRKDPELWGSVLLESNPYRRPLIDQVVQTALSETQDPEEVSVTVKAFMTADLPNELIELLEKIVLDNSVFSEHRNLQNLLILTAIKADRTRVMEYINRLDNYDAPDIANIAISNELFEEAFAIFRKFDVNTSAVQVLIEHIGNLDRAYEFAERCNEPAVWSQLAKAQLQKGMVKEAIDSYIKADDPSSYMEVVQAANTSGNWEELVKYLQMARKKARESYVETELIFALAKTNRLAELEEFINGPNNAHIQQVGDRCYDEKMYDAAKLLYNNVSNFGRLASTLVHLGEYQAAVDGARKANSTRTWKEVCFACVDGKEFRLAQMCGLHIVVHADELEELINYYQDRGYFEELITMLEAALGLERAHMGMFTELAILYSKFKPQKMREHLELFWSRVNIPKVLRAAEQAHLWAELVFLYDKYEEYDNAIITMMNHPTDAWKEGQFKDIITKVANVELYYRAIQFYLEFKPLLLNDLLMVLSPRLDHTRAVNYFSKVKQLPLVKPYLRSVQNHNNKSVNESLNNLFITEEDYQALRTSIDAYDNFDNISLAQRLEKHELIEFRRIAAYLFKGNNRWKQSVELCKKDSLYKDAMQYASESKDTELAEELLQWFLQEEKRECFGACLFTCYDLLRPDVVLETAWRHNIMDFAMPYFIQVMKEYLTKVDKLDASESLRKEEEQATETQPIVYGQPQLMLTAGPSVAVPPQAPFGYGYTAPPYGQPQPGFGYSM
UniProt O95377: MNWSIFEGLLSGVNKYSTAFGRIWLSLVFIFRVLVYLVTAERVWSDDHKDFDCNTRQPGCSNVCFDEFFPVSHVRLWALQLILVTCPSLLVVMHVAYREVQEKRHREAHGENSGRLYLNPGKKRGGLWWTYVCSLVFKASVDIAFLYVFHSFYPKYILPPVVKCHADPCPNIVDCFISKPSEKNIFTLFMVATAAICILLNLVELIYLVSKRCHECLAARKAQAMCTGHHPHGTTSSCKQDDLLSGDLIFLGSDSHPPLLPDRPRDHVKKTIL

What was measured:
[1] = molecular target: clathrin heavy chain (human (endogenous in H1299)) (UniProt Q00610); assay: co-IP; lysates of Cx31.1-EGFP-H1299 cells or H1299 cells stably expressing EGFP; immunoprecipitated with anti-GFP and blotted for clathrin heavy chain, and reciprocally immunoprecipitated with anti-clathrin heavy chain and blotted for GFP; buffer 50 mM Tris-HCl pH 7.4, 150 mM NaCl, 1% NP-40, 0.25% sodium deoxycholate, 1 mM EDTA; 4°C
Connexin 31.1-EGFP = Connexin 31.1-EGFP (UniProt O95377); assay: as above

Substance	binding [1]	binding (Connexin 31.1-EGFP)
Connexin 31.1-EGFP (from UniProt O95377 1-273)	binds	–
clathrin heavy chain (from UniProt Q00610 1-1675)	–	binds
